Data published in US6417182B1, “Pharmaceutical compositions comprising metal complexes” (AnorMED Inc., priority 1993, dated 2002).
Several values for one entry are separate records, joined by “and”; a condition that tells them apart may be missing. Equal entries are not always repeated.

Assay: in vitro NO uptake test (manometric pressure decrease; IR spectrum of freeze-dried product)
Conditions: freeze-dried reaction solution after in vitro NO test
Description: The resulting solution was placed in a three-necked pear-shaped flask and stirred by a magnetic stirrer at constant speed of 1000 rpm, at a constant temperature in the range 20° C.-24° C. A manometer was attached to the flask, and purified, dried nitric oxide gas (known volume in the range 3-5 cm^3) was introduced via a septum, using a gas syringe, at atmospheric pressure into the headspace above the reaction solution. The pressure within the flask was recorded periodically over a period of one hour.
A control experiment was carried out according to the above but without any complex present.
On completion of each in vitro test, the reaction solution was freeze-dried. An infrared spectrum of the freeze-dried product provided information on metal-NO bond formation.

Compared with O.O.O=C([O-])CN(CCN(CC(=O)[O-])CC(=O)O)CC(=O)[O-].[Cl-].[K+].[Ru+3] [Example 1, K[Ru(Hedta)Cl]2H2O], CC(=O)C=C(C)[O-].O=C([O-])CN(CCN(CC(=O)[O-])CC(=O)O)CC(=O)O.[Ru+3] [Example 2, [Ru(H2edta)(acac)]] is lower in “IR spectrum peak indicating the presence of a metal—NO bond” value: 1897 cm⁻¹ for the first, 1896 cm⁻¹ for the second.

Compared with O.O=C([O-])CN(CCO)CCN(CC(=O)[O-])CC(=O)[O-].[Cl-].[K+].[Ru+3] [Example 3, K[Ru(hedtra)Cl]H2O], O.O=C([O-])c1cccc(C(=O)[O-])n1.O=C([O-])c1cccc(C(=O)[O-])n1.[K+].[Ru+3] [Example 4, K[Ru(dipic)2]H2O] is higher in “IR spectrum peak indicating the presence of a metal—NO bond” value: 1889 cm⁻¹ for the first, 1915 cm⁻¹ for the second.

Going from O.O=C(O)c1cccc[nH+]1.O=C(O)c1ccccn1.O=C([O-])c1ccccn1.O=C([O-])c1ccccn1.[Cl-].[Cl-].[Ru+3] [Example 5, (H2pic)[RuCl2(pic)2](Hpic)H2O] to O.O=C([O-])CN(CCN(CC(=O)[O-])CC(=O)O)CC(=O)O.[Cl-].[Cl-].[K+].[Ru+3] [Example 6, K[Ru(H2edta)Cl2]H2O], the “IR spectrum peak indicating the presence of a metal—NO bond” value rises from 1888 cm⁻¹ to 1896 cm⁻¹.

First: O.O=C([O-])CN(CC(=O)[O-])CC(=O)O.O=C([O-])CN(CC(=O)[O-])CC(=O)O.O=C([O-])CN(CC(=O)[O-])CC(=O)O.O=C([O-])CN(CC(=O)[O-])CC(=O)O.[K+].[K+].[Ru+3].[Ru+3] [Example 7, K[Ru(Hnta)2]½H2O]
Second: O.O=C([O-])CN(CCN(CC(=O)[O-])CC(=O)O)CCN(CC(=O)[O-])CC(=O)O.[Cl-].[K+].[Ru+3] [Example 8, K[Ru(H2dtpa)Cl]H2O]
The “IR spectrum peak indicating the presence of a metal—NO bond” value of the first is lower: 1889 cm⁻¹ for the first, 1905 cm⁻¹ for the second.

Going from CC(=O)[O-].CC(=O)[O-].CC(=O)[O-].CC(=O)[O-].CC(=O)[O-].CC(=O)[O-].CC(=O)[O-].[O-2].[Ru+3].[Ru+3].[Ru+3] [Example 10, [Ru3O(OAc)6](OAc)] to CC(=O)[O-].CC(=O)[O-].CC(=O)[O-].CC(=O)[O-].O=[N+]([O-])[O-].[Ru+2].[Ru+3] [Example 11, [Ru2(OAc)4]NO3], the “IR spectrum peak indicating the presence of a metal—NO bond” value rises from 1877 cm⁻¹ to 1891 cm⁻¹.

First: CCC(=O)[O-].CCC(=O)[O-].CCC(=O)[O-].CCC(=O)[O-].O=[N+]([O-])[O-].[Ru+3].[Ru+3] [Example 12, [Ru2(OCOEt)4]NO3]
Second: O=C([O-])C(=O)[O-].O=C([O-])C(=O)[O-].O=C([O-])C(=O)[O-].[K+].[K+].[K+].[Ru+3] [Example 13, K3[Ru(ox)3]]
The “IR spectrum peak indicating the presence of a metal—NO bond” value of the first is higher: 1891 cm⁻¹ for the first, 1889 cm⁻¹ for the second.

Going from CC(=O)[O-].CC(=O)[O-].CC(=O)[O-].CC(=O)[O-].[Cl-].[Ru+3].[Ru+3] [Example 14, [Ru2(OAc)4]Cl] to NCCN.NCCN.NCCN.[I-].[I-].[I-].[Ru+3] [Example 16, [Ru(en)3]I3], the “IR spectrum peak indicating the presence of a metal—NO bond” value rises from 1895 cm⁻¹ to 1906 cm⁻¹.

First: O.[Cl-].[Cl-].[Cl-].[Cl-].[K+].[Ru+3].c1cnc2c(c1)ccc1cccnc12 [Example 17, K[RuCl4(phen)]H2O]
Second: [Cl-].[Cl-].[Cl-].[Cl-].[K+].[Ru+3].c1ccc(-c2ccccn2)nc1 [Example 19, K[RuCl4(bipy)]]
The “IR spectrum peak indicating the presence of a metal—NO bond” value of the first is higher: 1904 cm⁻¹ for the first, 1885 cm⁻¹ for the second.

Going from CS(C)=O.CS(C)=O.N.[Cl-].[Cl-].[Cl-].[Ru+3] [Example 20, [RuCl3(dmso)2(NH3)]] to N.N.N.N.N.N.[Cl-].[Cl-].[Cl-].[Ru+3] [Example 21, [Ru(NH3)6]Cl3], the “IR spectrum peak indicating the presence of a metal—NO bond” value rises from 1889 cm⁻¹ to 1910 cm⁻¹.

Going from CS(C)=O.CS(C)=O.CS(C)=O.CS(C)=O.[Cl][Ru][Cl] [Example 22, cis-[RuCl2(dmso)4]] to CS(C)=O.CS(C)=O.CS(C)=O.N.[Cl-].[Cl-].[Ru+2] [Example 23, cis-[RuCl2(dmso)3(NH3)]], the “IR spectrum peak indicating the presence of a metal—NO bond” value rises from 1881 cm⁻¹ to 1893 cm⁻¹.

First: CS(C)=O.CS(C)=O.CS(C)=O.[Cl-].[Cl-].[Cl-].[Ru+3] [Example 24, [RuCl3(dmso)3]]
Second: S=C([S-])N1CCOCC1.S=C([S-])N1CCOCC1.S=C([S-])N1CCOCC1.[Ru+3] [Example 25, [Ru(mtc)3]]
The “IR spectrum peak indicating the presence of a metal—NO bond” value of the first is higher: 1880 cm⁻¹ for the first, 1862 cm⁻¹ for the second.

Compared with Cc1occc(=O)c1[O-].Cc1occc(=O)c1[O-].Cc1occc(=O)c1[O-].[Ru+3] [Example 26, [Ru(maltol)3]], CC#N.CC#N.CC(=O)C=C(C)[O-].CC(=O)C=C(C)[O-].O=S(=O)([O-])C(F)(F)F.[Ru+3] [Example 27, [Ru(acac)2(MeCN)2]CF3SO3] is higher in “IR spectrum peak indicating the presence of a metal—NO bond” value: 1866 cm⁻¹ for the first, 1899 cm⁻¹ for the second.

Compared with O.[Cl-].[Cl-].[Cl][Ru]([Cl])[Cl].[K+].[K+] [Example 28, K2[RuCl5(H2O)]], O.O=C([O-])C(=O)[O-].[Os+2].c1ccc(-c2ccccn2)nc1.c1ccc(-c2ccccn2)nc1 [Example 29, [Os(ox)(bipy)2].H2O] is lower in “IR spectrum peak indicating the presence of a metal—NO bond” value: 1903 cm⁻¹ for the first, 1894 cm⁻¹ for the second.

For [Ru3O(lac)6](lac) [Example 9], the “IR spectrum peak indicating the presence of a metal—NO bond” value was 1884 cm⁻¹.

In the case of [Ru(NH3)5Cl]Cl2 [Example 15], the “IR spectrum peak indicating the presence of a metal—NO bond” value is reported as 1909 cm⁻¹ and 1928 cm⁻¹.
